Results are given in words; binding and its absence hold for the method and conditions named. In cells and extracts the contact can be indirect. A result given as binding can be weak or reduced; the word gives no strength. Where a sequence is shown, tags or fusion partners need not be part of it.
Target: T1, rcsA-SmBiT (RCSA fused to the SmBiT tag) (Salmonella typhimurium) (UniProt P54698)
T1 sequence: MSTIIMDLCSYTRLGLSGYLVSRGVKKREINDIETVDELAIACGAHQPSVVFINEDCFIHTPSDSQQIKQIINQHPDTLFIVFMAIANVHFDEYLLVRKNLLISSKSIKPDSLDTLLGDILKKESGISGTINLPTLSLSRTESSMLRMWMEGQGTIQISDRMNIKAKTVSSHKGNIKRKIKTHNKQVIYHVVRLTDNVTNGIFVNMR
Experiment: split reporter; Lon-LgBiT and rcsA-SmBiT overexpressed in WT-VNP, ΔhtrA-VNP (AIS) and WT-VNP-htrA^OVE strains; colonies on LB plates imaged, bioluminescence flux in liquid media read on a microplate reader (n = 5)

Substance: Lon-LgBiT (LON protease fused to the LgBiT tag) (from UniProt A0A0H3NIF1) (enzyme)
- binding: binds

From publication PMC11423194
